Reference: PMC8545117
Results are given in words; binding and its absence hold for the method and conditions named. Binding seen in cells or lysates may run through a third protein. Some results given as binding are weak or reduced against the parent protein; the word gives no strength. One block for each molecule: values may come before it.

Amino acid sequences for entries named in this document (tags omitted).
UniProt Q9HWC9: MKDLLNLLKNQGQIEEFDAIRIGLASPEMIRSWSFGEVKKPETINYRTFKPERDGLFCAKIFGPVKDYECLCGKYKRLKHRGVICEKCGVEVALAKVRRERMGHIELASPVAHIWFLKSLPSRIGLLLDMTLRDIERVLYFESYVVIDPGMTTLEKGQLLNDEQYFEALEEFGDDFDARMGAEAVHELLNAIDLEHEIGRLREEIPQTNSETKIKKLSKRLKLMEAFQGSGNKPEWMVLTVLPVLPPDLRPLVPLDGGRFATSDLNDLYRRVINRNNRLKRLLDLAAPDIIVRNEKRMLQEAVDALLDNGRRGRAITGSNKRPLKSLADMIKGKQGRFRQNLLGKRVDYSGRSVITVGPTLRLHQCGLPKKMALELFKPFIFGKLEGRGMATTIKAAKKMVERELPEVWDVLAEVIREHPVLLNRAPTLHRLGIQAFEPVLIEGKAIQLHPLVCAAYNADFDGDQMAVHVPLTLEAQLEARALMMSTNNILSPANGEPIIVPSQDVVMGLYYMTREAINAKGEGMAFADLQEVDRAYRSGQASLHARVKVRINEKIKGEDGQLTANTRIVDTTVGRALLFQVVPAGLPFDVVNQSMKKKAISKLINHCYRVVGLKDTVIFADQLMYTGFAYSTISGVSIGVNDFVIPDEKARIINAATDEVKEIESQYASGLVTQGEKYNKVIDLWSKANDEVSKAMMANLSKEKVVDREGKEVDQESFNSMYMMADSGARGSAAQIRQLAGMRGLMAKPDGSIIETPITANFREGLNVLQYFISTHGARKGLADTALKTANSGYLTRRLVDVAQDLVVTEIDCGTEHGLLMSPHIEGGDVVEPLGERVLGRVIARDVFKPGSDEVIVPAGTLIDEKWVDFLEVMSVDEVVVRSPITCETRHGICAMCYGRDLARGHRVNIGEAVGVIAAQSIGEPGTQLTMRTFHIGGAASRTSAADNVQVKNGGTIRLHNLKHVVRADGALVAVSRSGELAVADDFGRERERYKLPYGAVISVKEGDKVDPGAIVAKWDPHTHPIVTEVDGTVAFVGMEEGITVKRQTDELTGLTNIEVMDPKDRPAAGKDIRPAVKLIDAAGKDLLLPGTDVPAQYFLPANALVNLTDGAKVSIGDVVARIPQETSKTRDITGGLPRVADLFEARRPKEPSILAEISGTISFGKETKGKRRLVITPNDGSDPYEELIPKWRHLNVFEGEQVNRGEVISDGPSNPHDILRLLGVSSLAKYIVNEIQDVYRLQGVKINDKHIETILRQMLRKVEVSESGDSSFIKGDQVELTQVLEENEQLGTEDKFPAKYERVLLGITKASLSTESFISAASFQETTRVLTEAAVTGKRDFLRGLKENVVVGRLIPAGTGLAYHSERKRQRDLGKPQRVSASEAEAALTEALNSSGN
UniProt P30718: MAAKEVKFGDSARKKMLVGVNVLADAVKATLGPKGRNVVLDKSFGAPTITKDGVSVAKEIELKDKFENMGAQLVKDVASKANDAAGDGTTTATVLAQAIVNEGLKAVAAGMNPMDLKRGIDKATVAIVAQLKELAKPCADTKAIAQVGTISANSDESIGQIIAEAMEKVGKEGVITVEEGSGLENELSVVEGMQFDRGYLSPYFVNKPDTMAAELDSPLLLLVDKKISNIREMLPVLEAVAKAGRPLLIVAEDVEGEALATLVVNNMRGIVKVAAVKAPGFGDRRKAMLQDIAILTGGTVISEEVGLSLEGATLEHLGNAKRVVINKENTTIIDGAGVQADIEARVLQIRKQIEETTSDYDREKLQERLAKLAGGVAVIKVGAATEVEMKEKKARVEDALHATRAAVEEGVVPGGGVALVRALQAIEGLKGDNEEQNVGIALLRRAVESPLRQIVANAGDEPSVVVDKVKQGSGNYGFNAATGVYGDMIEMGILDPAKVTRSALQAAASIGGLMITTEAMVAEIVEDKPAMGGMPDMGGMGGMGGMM
UniProt Q51561: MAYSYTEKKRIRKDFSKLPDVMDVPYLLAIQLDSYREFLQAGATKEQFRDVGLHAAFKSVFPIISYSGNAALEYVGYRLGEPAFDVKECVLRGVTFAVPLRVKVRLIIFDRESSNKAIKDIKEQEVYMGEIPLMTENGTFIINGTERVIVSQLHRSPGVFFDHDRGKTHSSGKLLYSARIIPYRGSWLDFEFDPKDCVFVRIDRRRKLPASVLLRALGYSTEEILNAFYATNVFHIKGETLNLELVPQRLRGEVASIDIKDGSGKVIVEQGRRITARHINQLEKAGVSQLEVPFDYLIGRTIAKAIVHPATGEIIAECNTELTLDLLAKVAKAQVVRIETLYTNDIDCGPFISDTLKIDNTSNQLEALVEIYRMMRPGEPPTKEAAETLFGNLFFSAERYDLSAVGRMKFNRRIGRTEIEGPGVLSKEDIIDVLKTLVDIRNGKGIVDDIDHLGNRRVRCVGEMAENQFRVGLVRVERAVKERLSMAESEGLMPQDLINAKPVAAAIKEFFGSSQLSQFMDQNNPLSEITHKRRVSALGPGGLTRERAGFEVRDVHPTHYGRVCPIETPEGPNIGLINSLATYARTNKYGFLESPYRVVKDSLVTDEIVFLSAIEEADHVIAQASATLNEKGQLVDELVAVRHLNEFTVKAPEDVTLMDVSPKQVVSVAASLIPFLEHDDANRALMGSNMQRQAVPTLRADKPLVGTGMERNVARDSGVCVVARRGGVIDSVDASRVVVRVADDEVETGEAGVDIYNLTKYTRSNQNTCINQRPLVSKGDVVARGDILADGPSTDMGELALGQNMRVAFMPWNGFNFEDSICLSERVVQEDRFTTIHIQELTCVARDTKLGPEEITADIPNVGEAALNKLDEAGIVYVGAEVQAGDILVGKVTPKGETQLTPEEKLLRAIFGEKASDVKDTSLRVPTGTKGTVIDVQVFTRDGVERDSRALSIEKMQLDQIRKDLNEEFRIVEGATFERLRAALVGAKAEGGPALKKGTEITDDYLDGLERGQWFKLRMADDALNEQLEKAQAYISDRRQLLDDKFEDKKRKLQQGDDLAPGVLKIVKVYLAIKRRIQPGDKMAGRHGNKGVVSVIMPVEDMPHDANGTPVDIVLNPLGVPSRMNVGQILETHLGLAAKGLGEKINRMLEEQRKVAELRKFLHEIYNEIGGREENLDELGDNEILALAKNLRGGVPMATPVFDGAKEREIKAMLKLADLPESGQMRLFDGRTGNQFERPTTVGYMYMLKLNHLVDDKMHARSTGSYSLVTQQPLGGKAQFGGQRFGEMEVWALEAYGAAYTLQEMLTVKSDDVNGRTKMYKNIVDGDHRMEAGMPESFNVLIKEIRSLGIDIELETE
UniProt O52760: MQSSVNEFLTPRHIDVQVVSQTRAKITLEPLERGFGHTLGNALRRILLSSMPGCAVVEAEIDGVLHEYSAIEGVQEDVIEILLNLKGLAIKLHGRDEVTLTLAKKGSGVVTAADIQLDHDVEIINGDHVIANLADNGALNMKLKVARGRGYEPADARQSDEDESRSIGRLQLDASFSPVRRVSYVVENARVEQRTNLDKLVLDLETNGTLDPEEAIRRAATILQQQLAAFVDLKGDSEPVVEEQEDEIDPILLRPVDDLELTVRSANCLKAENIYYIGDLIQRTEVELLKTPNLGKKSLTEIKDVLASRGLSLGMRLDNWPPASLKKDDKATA

Tests used:
[1] = biological target: RNA polymerase subunit beta' RpoC (P. aeruginosa (endogenous in strain PAO1)) (UniProt Q9HWC9); test: co-sedimentation; Grad-seq: cleared lysate of P. aeruginosa PAO1 (LB, OD600 0.3) on a linear 10% to 40% (wt/vol) glycerol gradient, SW40Ti, 100,000 x g, 17 h, 4°C; 20 fractions and pellet analysed by SDS-PAGE and nanoLC-MS/MS; lysis buffer 20 mM Tris-HCl pH 7.5, 150 mM KCl, 1 mM MgCl2, 1 mM DTT, 0.2% Triton X-100
[2] = biological target: GroEL (P. aeruginosa (endogenous in strain PAO1)) (UniProt P30718); test: as above

Molecule: GroEL (from UniProt P30718 1-547)
binding [2]: binds

Molecule: RNA polymerase subunit beta RpoB (from UniProt Q51561 1-1357)
binding [1]: binds

B1: RNA polymerase subunit omega RpoZ (protein, UniProt B7V5M8 1-88)
chain: MARVTVEDCLDNVDNRFELVMLATKRARQLATGGKEPKVAWENDKPTVVALREIASGLVDENVVQQEDIVEDEPLFAAFDDEANTEAL
binding [1]: binds

Continued, values first:

binding [1]: binds
Molecule: RNA polymerase subunit alpha RpoA (from UniProt O52760 1-333)

binding [2]: no binding
B2: GroES (protein, UniProt P30720 1-97)
chain: MKLRPLHDRVVIRRSEEETKTAGGIVLPGSAAEKPNRGEVVAVGTGRVLDNGEVRALAVKVGDKVVFGPYSGSNAIKVDGEELLVMGESEILAVLED
